## Melanoma cell counts after drug treatment

Data from the primary screen of doi:10.1371/journal.pone.0140310, rounded.

Every entry is a combination with NVP-BEZ235 at 0.004 µM: Cn1c(=O)n(-c2ccc(C(C)(C)C#N)cc2)c2c3cc(-c4cnc5ccccc5c4)ccc3ncc21

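The test systems are human melanoma cell lines, treated with a pair of drugs for 72 h and then stained and imaged. Values are the number of DAPI-stained nuclei as a percentage of the DMSO control: 100 is no effect, lower means fewer cells. Every drug was used at one fixed concentration, the lower of two screened (a fifth of the higher). The file gives one value for each pair and line, without errors, so small differences may be noise.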 An unselected part of the screen is shown. A dash means that no value is listed here.

| Second drug | LOX IMVI | MEL-HO | 501mel | A2058 | LB2518-MEL | G-361 | COLO 800 | COLO 829 | COLO 792 | C32 | A101D | IPC-298 | IST-MEL1 | A375 |
|---|---|---|---|---|---|---|---|---|---|---|---|---|---|---|
| CN(C)S(=O)(=O)c1ccc2c(c1)/C(=C/c1cc3c([nH]1)CCCC3)C(=O)N2 at 0.4 µM | 121 | 117 | - | 84.1 | 96.0 | 96.3 | 99.1 | 104 | 104 | 80.5 | 92.5 | 103 | 104 | 100 |
| O=C(O)c1ccc(-c2c[nH]c3ncc(-c4ccccc4)cc23)cc1C1CCCC1 at 0.16 µM | 98.6 | 91.1 | - | 73.9 | 102 | 87.9 | 104 | 101 | 93.7 | 92.1 | 80.7 | 96.2 | 85.5 | 81.6 |
| CCN(CC)CCCCNc1ncc2cc(-c3cc(OC)cc(OC)c3)c(NC(=O)NC(C)(C)C)nc2n1 at 0.1 µM | 81.4 | 92.6 | 76.5 | 86.7 | 105 | 85.5 | 87.0 | 125 | 74.2 | 102 | 80.9 | 105 | 96.6 | - |
| CC(C)(C)c1cnc(CSc2cnc(NC(=O)C3CCNCC3)s2)o1 at 0.01 µM | 78.8 | 80.3 | - | 96.2 | - | 88.2 | 80.1 | 101 | 89.1 | 86.4 | 85.8 | 103 | 96.4 | 84.3 |
| O=C(O)[C@@H]1[O][Sb](=[O])([O][Sb]2(=[O])[O][C@H]([C@H](O)CO)[C@H](O)[C@H](C(=O)O)[O]2)[O][C@H]([C@H](O)CO)[C@@H]1O (stereo partly drawn) at 2 µM | 69.2 | 91.2 | - | 93.8 | - | 103 | 61.0 | 88.9 | 102 | 89.1 | 87.5 | 88.5 | 98.5 | 89.5 |
| NCC(=O)Nc1ccc(-n2nc(C(F)(F)F)cc2-c2ccc3c(ccc4ccccc43)c2)cc1 at 1 µM | 94.0 | 99.6 | - | 87.4 | 99.3 | 82.5 | 71.5 | 91.2 | 100 | 94.4 | 108 | 95.1 | 103 | 30.9 |
| C=CCn1c(=O)c2cnc(Nc3ccc(N4CCN(C)CC4)cc3)nc2n1-c1cccc(C(C)(C)O)n1 at 0.02 µM | 96.4 | 92.9 | - | 89.1 | 100 | 91.5 | 112 | 92.0 | 85.7 | 96.8 | 80.6 | 89.2 | 86.0 | 54.6 |
| CCCS(=O)(=O)Nc1ccc(F)c(C(=O)c2c[nH]c3ncc(Cl)cc23)c1F at 0.08 µM | 116 | 90.9 | - | 84.4 | 107 | 100 | 96.0 | 97.0 | 87.3 | 95.1 | 72.1 | 85.8 | 93.5 | 82.4 |
| OCc1c[nH]c2ccccc12 at 0.8 µM | 76.5 | 83.1 | - | 97.3 | 91.0 | 95.5 | 80.7 | 95.6 | 85.6 | 73.5 | 79.4 | 91.5 | 81.9 | 83.4 |
| Nc1cccc2c1CN(C1CCC(=O)NC1=O)C2=O (stereo not drawn) at 1 µM | 72.3 | 83.2 | - | 89.4 | 97.0 | 87.5 | 82.8 | 110 | 86.5 | 102 | 85.8 | 93.1 | 85.8 | 64.0 |
| N#CC[C@H](C1CCCC1)n1cc(-c2ncnc3[nH]ccc23)cn1 at 1 µM | 54.3 | 88.4 | - | 74.5 | 105 | 86.7 | 135 | 89.5 | 87.8 | 95.3 | 91.8 | 102 | 89.8 | 127 |
| CC(C)CCN1c2nc(Nc3cc(F)c(O)c(F)c3)ncc2N(C)C(=O)C1C (stereo not drawn) at 0.2 µM | 131 | 88.4 | 116 | 98.1 | 110 | 102 | 115 | 116 | 81.1 | 96.0 | 84.2 | 95.6 | 88.2 | - |
| O=C(Nc1cccc(Cl)c1)Nc1ncc(CCNc2ncnc3ccsc23)s1 at 0.0008 µM | 44.8 | 88.3 | - | 92.2 | 87.9 | 83.0 | 52.2 | 97.5 | 81.8 | 97.9 | 80.9 | 98.9 | 90.3 | 82.4 |
| CCCCCCCCCCCC1=C(O)C(=O)C=C(O)C1=O at 1.2 µM | 113 | 96.0 | 115 | 88.0 | 103 | 94.9 | 88.7 | 25.0 | 97.6 | 83.1 | 106 | 99.8 | 93.6 | - |
| O=C(/C=C/c1cccnc1)NCCCCC1CCN(C(=O)c2ccccc2)CC1 at 0.01 µM | 51.9 | 49.9 | - | 94.3 | 90.8 | 9.4 | 26.0 | 81.1 | 54.7 | 102 | 87.6 | 38.1 | 60.1 | 114 |
| COc1ccc2c(c1)CCC1C2CCC2(C)C(NCCCCCCN3C(=O)C=CC3=O)CCC12 (stereo not drawn) at 0.4 µM | 82.2 | 95.3 | 94.4 | 89.9 | 101 | 87.0 | 96.1 | 103 | 88.0 | 81.9 | 82.9 | 101 | 98.2 | - |
| O=C(O)C(=O)Nc1sc2c(c1C(=O)O)CCNC2 at 1.67 µM | 116 | 85.7 | 93.8 | 97.0 | 105 | 89.1 | 90.8 | 101 | 87.9 | 101 | 95.5 | 95.7 | 97.7 | - |
| Cn1cncc1[C@@](N)(c1ccc(Cl)cc1)c1ccc2c(c1)c(-c1cccc(Cl)c1)cc(=O)n2C at 0.01 µM | 89.7 | 74.2 | - | 74.7 | 81.9 | 86.6 | 88.5 | 68.7 | 85.1 | 86.5 | 76.6 | 92.6 | 92.4 | 70.4 |
| Cc1nc(Nc2ncc(C(=O)Nc3c(C)cccc3Cl)s2)cc(N2CCN(CCO)CC2)n1 at 0.004 µM | 62.4 | 76.4 | - | 83.8 | 103 | 93.8 | 92.0 | 90.7 | 73.5 | 86.3 | 78.3 | 87.0 | 85.4 | 84.4 |
| CS(=O)(=O)CCNCc1ccc(-c2ccc3ncnc(Nc4ccc(OCc5cccc(F)c5)c(Cl)c4)c3c2)o1 at 0.8 µM | 82.5 | 74.0 | - | 80.2 | 137 | 85.2 | 74.3 | 95.1 | 66.2 | 82.6 | 77.1 | 95.1 | 94.3 | 84.2 |
| Oc1nc(-c2ccc(C(F)(F)F)cc2)nc2c1CSCC2 at 2 µM | 160 | 69.8 | 90.5 | 79.6 | 94.8 | 80.0 | 101 | 109 | 72.9 | 89.3 | 84.7 | 92.1 | 92.5 | - |
| NC(=O)Nc1cc(-c2cccc(F)c2)sc1C(=O)N[C@H]1CCCNC1 at 0.02 µM | 120 | 96.7 | - | 105 | 108 | 95.2 | 71.2 | 94.5 | 92.7 | 87.9 | 73.9 | 101 | 113 | 34.0 |

For reference, 2 entries once more:

Second drug,LOX IMVI,MEL-HO,501mel,A2058,LB2518-MEL,G-361,COLO 800,COLO 829,COLO 792,C32,A101D,IPC-298,IST-MEL1,A375
O=C(Nc1cccc(Cl)c1)Nc1ncc(CCNc2ncnc3ccsc23)s1 at 0.0008 µM,44.8,88.3,-,92.2,87.9,83.0,52.2,97.5,81.8,97.9,80.9,98.9,90.3,82.4
CCCCCCCCCCCC1=C(O)C(=O)C=C(O)C1=O at 1.2 µM,113,96.0,115,88.0,103,94.9,88.7,25.0,97.6,83.1,106,99.8,93.6,-